Laboratory results from PubChem BioAssay AID2685 (National Center for Advancing Translational Sciences (NCATS), 2010).
The campaign covered roughly 320,000 compounds. About 2,100 (0.66%) were called active. This list was built around the results that the source calls inconclusive (neither active nor inactive); the mix of calls is not that of the screen. The call rests on the fitted dose curve; in most records, active means well fitted inhibition curve with a large enough effect in the signal ratio, with a control signal flat (not every such curve was filed as active); inconclusive means small, poorly fitted or top-dose-only effect, or effect the other way, or a change in a side signal; inactive means flat fitted curve, though single readings scatter; the % refers to the signal ratio. A potency beside an inconclusive call is a rough fit, not a confirmed value.

assay: qHTS Assay for Lipid Storage Modulators in Drosophila S3 Cells; settings: BODIPY lipid droplet fluorescence, 18-24 h, cells fed with added oleic acid; lipid storage change, negative = inhibition: at 46.1 µM (top of the series) unless noted
Outline: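 Drosophila S3 cells got compounds at several concentrations plus oleic acid (400 uM solution). Laser-scanning cytometry with 488 nm excitation read lipid droplets at 500-530 nm and cells at 575-640 nm. Percent activity was relative to 20 uM Triacsin C.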
On the % scale 0 is the no-effect control and ±100 the full control effect; potency means the concentration at half of the fitted maximal effect.

| SMILES | Potency | lipid storage change, negative = inhibition |
| --- | --- | --- |
| Cc1cc(Cl)c(S(=O)(=O)N2CCSCC2)cc1OCC(=O)NC1CCCCC1 | inconclusive: 6.51 µM [activator, single point] |  |
| CCc1ccc(OCC(=O)Nc2ccc(-c3cc4ccccc4oc3=O)c(OC)c2)cc1 |  | inconclusive: -6.43% |
| COc1cc(CNc2ccc(S(N)(=O)=O)cc2)ccc1OCC(=O)NC1CCCCC1 |  | inconclusive: -8.03% |
| S=c1[nH]c(-c2ccccc2)cn1/N=C/c1cccnc1 |  | inconclusive: 12.3% |
| Cc1nc(N2CCC(C)CC2)c2c(C)c(C(=O)Nc3ccccc3C(F)(F)F)sc2n1 |  | inconclusive: -6.96% [at 9.22 µM] |
| COc1ccc(-c2c(-c3ccccc3OC)sc3ccccc23)cc1C=O |  | inconclusive: 14.5% |
| CCOc1ccc(S(=O)(=O)n2nc(C)c(S(=O)(=O)N3CCOCC3)c2C)cc1 | inconclusive: 0.461 µM [falling, full curve] |  |
| Cn1cc(/C=N/NC(=O)c2ccccc2O)c2ccccc21 |  | inconclusive: -29.8% |
| COC(=O)Cc1ccc(NC(=S)N2CCN(C)CC2)cc1 |  | inconclusive: -15.1% |
| COc1ccc(Br)cc1CNc1ccc2[nH]c(=O)[nH]c2c1 |  | inconclusive: -2.96% |
| C=CCOc1ccc(C=Nc2cccc(Cl)c2)c(O)c1 |  | inconclusive: -21.3% |
| CCOc1cccc(-c2cc(-c3n[nH]c(=S)n3CC)c3ccccc3n2)c1 |  | inconclusive: -4.67% |
| CCCc1cc(C(=O)Nc2ccc(C(=O)c3ccc(F)cc3)cc2)n(C)n1 | inconclusive: 35.5 µM [falling, single point] |  |
| Cc1ccc(NC2CCCN(C(=O)c3ccoc3)C2)cc1C (stereo not given) |  | inactive: -3.71% |
| CCCCSc1cc(C)nc2ncnn12 |  | inconclusive: 19.1% |
| CC(C)c1ccc(NC(=O)C2CCCN(S(=O)(=O)c3cccnc3)C2)cc1 (stereo not given) | inconclusive: 7.31 µM [activator, partial curve] |  |
| COc1cc(NC(=O)C2CC(c3cccc(Br)c3)=NO2)cc(OC)c1OC (stereo not given) | inconclusive: 7.31 µM [activator, partial curve] |  |
| O=C(CCCNC(=O)c1ccc(Cl)cc1)OCc1cccc(Br)c1 |  | inconclusive |
| COc1ccc(-n2c(SC3CCOC3=O)nc3ccccc3c2=O)cc1OC (stereo not given) |  | inconclusive: 35.1% |
| Cc1cc(C(=O)Nc2sccc2C#N)c2ccccc2n1 |  | inconclusive: 24% |
| C/C(=N/NC(=O)c1cccs1)c1c(C)[nH]n(-c2nc3ccccc3s2)c1=O | inconclusive: 23.1 µM [activator, single point] |  |
| Cc1ccc(C)c(OCCC(=O)Nc2cccc(S(=O)(=O)N3CCCC3)c2)c1 | inconclusive: 1.03 µM [activator, partial curve] |  |
| Cc1ccc(S(=O)(=O)N2CCN(Cc3nc4ccccc4n3C)CC2)cc1 |  | inconclusive: 28.1% |
| Cn1c(CSc2ncccn2)nnc1SCC(=O)N1CCCCC1 |  | inconclusive: 0.0054% |
| CC(C)Nc1cc(C(C)(C)C)nc2c(-c3ccccc3)cnn12 |  | inconclusive: -10.9% |

Given bar-delimited: part of the list above
SMILES | Potency | lipid storage change, negative = inhibition
Cc1nc(N2CCC(C)CC2)c2c(C)c(C(=O)Nc3ccccc3C(F)(F)F)sc2n1 |  | inconclusive: -6.96% [at 9.22 µM]
C=CCOc1ccc(C=Nc2cccc(Cl)c2)c(O)c1 |  | inconclusive: -21.3%
Cc1ccc(NC2CCCN(C(=O)c3ccoc3)C2)cc1C (stereo not given) |  | inactive: -3.71%

Later entries:

| SMILES | Potency | lipid storage change, negative = inhibition |
| --- | --- | --- |
| COc1ccccc1N1CCN(C(=O)C(NS(=O)(=O)c2cccs2)c2ccccc2)CC1 (stereo not given) | inconclusive: 29.1 µM [falling, single point] |  |
| CCOc1ccc(N/C(C)=C\C(=O)c2ccc3c(c2)OCCO3)cc1 | inconclusive: 18.4 µM [falling, single point] |  |
| Cc1nnc(SCCn2c(N3CCN(C)CC3)nc3c2c(=O)n(C)c(=O)n3C)s1 |  | inconclusive: -32.6% |
| CCOC(=O)Nc1cccc(OCC(=O)Nc2ccccc2OC)c1 |  | inconclusive: 17.9% |
| CS(=O)(=O)c1ccc2nc(NC(=O)c3ccc(N4CCCC4=O)cc3)sc2c1 |  | inconclusive: 7.72% |
| Cc1ccccc1Cn1c(NC2CCCC2)nc2c1c(=O)[nH]c(=O)n2C | inconclusive: 29.1 µM [activator, single point] |  |
| O=C(NC1=NCCS1)c1cc(-c2ccc(F)cc2)nc2ccccc12 |  | inconclusive: 21.7% |
| CCn1c(C)cc(/C=C2/SC(=S)N(CC(=O)O)C2=O)c1C |  | inconclusive: -13.5% |
| Cc1cc(OC2CCCCC2)nc(-c2ccccc2O)n1 | inconclusive: 7.31 µM [activator, partial curve] |  |
| CC1(C)OC(=O)C(=CNc2ccccc2)C(=O)O1 |  | inconclusive: -1.57% |
| CCn1cc(NC(=O)CCl)c(C)n1 | inconclusive: 0.731 µM [falling, full curve] |  |
| CCCN1C2=NCCCN2c2ccccc21 |  | inconclusive: -14.9% |
| COc1cccc(C2Nc3cc(Cl)c(S(N)(=O)=O)cc3S(=O)(=O)N2)c1 (stereo not given) | inconclusive: 0.82 µM [falling, full curve, poor fit] |  |
| COc1ccc(N(CC(=O)NC2CCCC2)C(=O)Cn2nnc(-c3ccc(OC)c(OC)c3)n2)cc1 |  | inconclusive: -5.25% |
| COc1ccccc1-c1cn(S(=O)(=O)c2ccc(C)cc2)nc1N | inconclusive: 29.1 µM [falling, single point] |  |
| COC(=O)C(=C/C(C)=C/c1cccnc1)C(=O)OC |  | inconclusive: -32.3% |
| Fc1ccc(C2c3[nH]c4ccccc4c3CCN2Cc2cccn2-c2ncccn2)cc1 (stereo not given) |  | inactive: -15.7% |
| O=C(c1ccccn1)c1ncc(C(F)(F)F)cc1Cl |  | inconclusive: -1.9% |
| Cc1cc(C)c(NC(=O)COC(=O)Cc2cccs2)c(C)c1 |  | inconclusive |
| COc1ccc(C(=O)NCCS(=O)(=O)NC(C)c2ccccc2)cc1 (stereo not given) |  | inconclusive: 3.26% |
| COC(=O)c1ccc(CSc2nc3ccc(S(=O)(=O)N4CCOCC4)cc3[nH]2)cc1 |  | inactive: -10.3% |
| Nc1cc(OC(=O)c2cccs2)nn1S(=O)(=O)c1ccc(F)cc1 |  | inconclusive: -17.7% |
| CSCCC(NC(=O)c1ccccc1Cl)C(=O)N1CCN(C(C)=O)CC1 (stereo not given) | inconclusive: 0.82 µM [falling, full curve, poor fit] |  |
| COc1ccc(NC(=S)NCCc2ccccc2)c(OC)c1 |  | inconclusive: 196% |
| CCOC1=C/C(=C/c2c(N)n3nc(CC(=O)N4CCCCC4)sc3nc2=O)C=CC1=O |  | inconclusive: -100% |
